# In article PMC10384675, “Novel Thiazolidine-2,4-dione-trimethoxybenzene-thiazole Hybrids as Human Topoisomerases Inhibitors” (Pharmaceuticals, 2023):
# How the values were obtained:
# Assay type in all cases: cell-based
# [1] = system: MDA-MB-231 breast cancer cells; test: MTT cell viability assay, MDA-MB-231; settings: Homo sapiens, MDA-MB-231, 72 h, read-out: IC50 MDA-MB-231
# Experimental: (§1) All of the synthesized compounds (7a–f) were studied to test their anticancer activity toward the estrogen receptor-positive (ER+) MCF-7 and the triple-negative MDA-MB-231 breast cancer cells (ER-, PR- and HER-2/Neu not overexpressed) and A2058 melanoma cells. Cells were incubated for 72 h with different concentrations of the compounds, and then the viability was checked by the MTT assay. […] Moreover, we checked the cytotoxicity of all of the synthesized compounds against the human MCF-10A non-malignant breast epithelial cells and mouse BALB/3T3 embryonic fibroblasts, in order to evaluate their selectivity on cancer cells.
# (§2) The used cell lines (breast cancer cell lines MCF-7 and MDA-MB-231, melanoma cell line A2058 and human mammary epithelial cell line MCF-10A) were obtained from American Type Culture Collection (ATCC, Manassas, VA, USA) and cultured as already reported. The mouse BALB/3T3 embryonic fibroblasts were also purchased from American Type Culture Collection (ATCC, Manassas, VA, USA) and cultured in DMEM high glucose supplemented with 10% bovine calf serum (BCS) and 100 U mL^−1 penicillin/streptomycin.
# (§3) MTT assay (Sigma Aldrich (St. Louis, MO, USA)) was performed for evaluating the in vitro anticancer activities of the compounds, as previously indicated. Different concentrations (0.1, 1, 10, 25, 50, and 100 μM) of the compounds were employed, with a 72 h endpoint. […]
# [2] = system: MCF-7 breast cancer cells; test: MTT cell viability assay, MCF-7; settings: Homo sapiens, MCF7, 72 h, read-out: IC50 MCF-7
# Experimental: as §1, §2, §3
# A2058 melanoma cells = test: MTT cell viability assay, A2058; settings: Homo sapiens, A2058, 72 h, read-out: IC50 A2058
# Experimental: as §1, §2, §3
# [3] = system: human MCF-10A non-malignant breast epithelial cells; test: MTT cytotoxicity assay, MCF-10A; settings: 72 h, read-out: IC50 MCF-10A
# Experimental: as §1, §2, §3
smiles,measurement,setting,value
"COc1cc2c(c(OC)c1OC)-c1ccc(OC)c(=O)cc1[C@@H](NC(C)=O)CC2 [colchicine, reference compound]",IC50,[1],81 nM
same,IC50,[2],16 nM
same,IC50,A2058 melanoma cells,34 nM
same,IC50,[3],8.9 nM
